Measurements as given in US10227374B2, “Silyl etherified derivatives of 5-azacytidines in carbohydrate moiety” (OHARA PHARMACEUTICAL CO., LTD., priority 2016, dated 2019).
Some results were stated once for a whole list of compounds, not compound by compound.

Chains of the proteins cited; added tags and fusions are not shown. Lines headed by an entry give the natural chain unless they say otherwise; changes in a name come on top.
UniProt P32320: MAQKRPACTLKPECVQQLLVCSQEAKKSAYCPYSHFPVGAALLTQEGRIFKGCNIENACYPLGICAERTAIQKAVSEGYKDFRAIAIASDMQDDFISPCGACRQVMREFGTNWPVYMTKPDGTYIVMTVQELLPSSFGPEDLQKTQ

Molecular target: cytidine deaminase: CDA (1-146aa), Human, His-tagged, Recombinant (Homo sapiens, UniProt P32320)
Assay: Stability against cytidine deaminase (HPLC)
Procedure: Stability of Silyl Etherified Derivatives of 5-azacytidines in Carbohydrate Moiety Against Cytidine Deaminase
About 1 mg each of the silyl etherified derivatives of 5-azacytidines in carbohydrate moiety (referring to formula (1a)) was dissolved in 1 mL of acetonitrile. 10 μL of the solution was diluted with 1 mL of PBS. 10 μL of PBS solution of cytidine deaminase was added to the solution and stirred at 37° C. for about 1 hour. 1 mL of acetonitrile was added to the reaction solution and separated by centrifugation. The supernatant was analyzed with HPLC.
Cytidine deaminase: CDA (1-146aa), Human, His-tagged, Recombinant cytidine deaminase (ATGen)
Column: CAPCELL PAK ADME (4.6 mm×150 mm, particle size: 3 μm)
Elution: eluate A=Purified water containing 10 mM ammonium formate • eluate B=Acetonitrile • Gradient mode: A:B=99:1→5:95/30 minutes

Nc1ncn([C@H]2C[C@H](O)[C@@H](CO)O2)c(=O)n1 [2′-Deoxy-5-azacytidine, 2′-deoxy-5-azacytidine, reference compound]
time to decomposition in the presence of cytidine deaminase: ≤ 30 min
